Where only a bound is given, the exact number is not on record here.

The subject of the test is HCT116. Particulars: 72 h. A digest of the protocol:
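Each well of the 1536-well plates received 250 HCT116 cells, which attached over 5 h. Luminescence was measured with CellTiter-Glo, scaled with vehicle as 0% and positive control as -100%, and pattern-corrected. A four-parameter Hill fit yielded IC50 and maximal efficacy.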

Consider `O=C(c1ccccc1)c1ccccc1` [Benzophenone], for which the IC50 cell viability is greater than 45.8 µM (ICRF193 0 nM) and greater than 45.8 µM (ICRF193 200 nM).

Source of the values: the supplement of paper PMC12137928.
